# Laboratory results: PubChem BioAssay AID493014 (National Center for Advancing Translational Sciences (NCATS), 2011)
# Some of the results follow. Shown are side measurements of this screen, not its main read-out; they come without a call. The list favours compounds with an active or inconclusive main result. Words in brackets tell the shape of the fitted curve; partial curves, single points and poor fits give uncertain potencies.
# Test: qHTS Assay to Find Inhibitors of Chronic Active B-Cell Receptor Signaling
# Details: ABC-DLBCL IkBa-CBG/CBR reporter, luminescence ratio (green luciferase fused to IkBa over red control in TMD8 lymphoma cells), 4 h
# Method in brief: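 Cell line TMD8 (human ABC DLBCL), stably expressing tet-inducible CBG68-IkBa fusion and CBR; IMDM/0.5% FBS; cpd up to 46 uM; dox induction, 4 h, 37C/5% CO2; dual luminescence; green/red ratio; MG132 control.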
# [1] = measured here: CBR red luminescence, cell number
# [2] = measured here: IkBa-CBG green luminescence
structure (smiles),measurement,setting,value
CC1CCC(CN2C(Nc3ccccc3)=NC[C@@H]2Cc2ccccc2)CC1 (stereo partly specified),AC50,[1],"32.6 µM [falling, partial curve, poor fit]"
Fc1ccccc1/C=N/Nc1nc(-c2ccccn2)nc2ccccc12,AC50,[1],"22.4 µM [rising, partial curve, poor fit]"
CC(=O)c1ccc(NC(=O)CSc2nc3nc(C)cc(C)n3n2)cc1,AC50,[1],"29.1 µM [rising, single point]"
O=C(/C=C/c1ccco1)N/C(=C\c1ccco1)C(=O)NCCc1nc2ccccc2[nH]1,AC50,[1],"25.9 µM [falling, single point]"
CC(=O)Nc1c(C)cc(OCC(=O)O)cc1C,AC50,[1],"35.5 µM [rising, single point]"
FC(F)(F)c1ccc2c3n(nc2c1)CCN=C3c1ccc(Cl)cc1,AC50,[1],"32.6 µM [falling, partial curve, poor fit]"
COc1ccc(N(CC(=O)NCCC2=CCCCC2)S(=O)(=O)c2ccccc2F)cc1,AC50,[1],"0.112 µM [rising, full curve, poor fit]"
O=C(CCn1c(=O)oc2ccccc21)NCCCN1CCN(c2ccc(F)cc2)CC1,AC50,[1],"17.8 µM [falling, partial curve, poor fit]"
COC(=O)N/N=C/c1ccc(-c2ccc(C)c(Cl)c2)o1,AC50,[1],"2.06 µM [rising, partial curve, poor fit]"
O=C(Cc1coc2cc3c(cc12)CCC3)OCc1cc(=O)n2c(n1)sc1ccccc12,AC50,[1],"0.651 µM [falling, full curve, poor fit]"
CCc1ccc(OCC(=O)c2c(O)c3ccccc3oc2=O)cc1,AC50,[1],"5.62 µM [falling, partial curve, poor fit]"
O=C(O)CCCN1C(=O)/C(=C\c2ccco2)SC1=S,AC50,[1],"1.26 µM [falling, full curve, poor fit]"
Cc1noc(/C=C/N(C)C)c1S(=O)(=O)N(C)CC(=O)NC1CCCCC1,AC50,[1],"32.6 µM [falling, single point]"
Cc1oc2ccc(NS(=O)(=O)c3ccc(C(C)(C)C)cc3)cc2c1C(=O)Nc1ccccc1,AC50,[1],"1.26 µM [falling, partial curve, poor fit]"
O=[N+]([O-])c1ccc(Sc2nccn2Cc2ccccc2)c([N+](=O)[O-])c1,AC50,[1],"32.6 µM [falling, single point]"
same,AC50,[2],"4.61 µM [rising, partial curve, poor fit]"
O=C(NC(O)C(=O)c1ccccc1)c1ccccn1 (stereo unspecified),AC50,[1],"25.1 µM [falling, single point]"
Cc1cc(C(=O)CSc2ccc3c(c2)OCCO3)c(C)n1C1CC1,AC50,[1],"29.1 µM [falling, single point]"
C[C@]12CC[C@H](O)CC1=CCC1C2CC[C@@]2(C)C1CC[C@@H]2NC(=O)CCC(=O)O (stereo partly specified),AC50,[1],"29.1 µM [rising, partial curve, poor fit]"
Cc1cc(C)nc(SCc2c(F)cccc2Cl)n1,AC50,[2],"10 µM [falling, partial curve, poor fit]"
COc1ccc(/C=C/C(=O)N2CCCc3ccccc32)c(OC)c1,AC50,[1],"17.8 µM [falling, partial curve, poor fit]"
O=C(NN1C(=O)C2C(c3ccccc3)C=CC(c3ccccc3)C2C1=O)c1cccc(Br)c1 (stereo unspecified),AC50,[1],"23.1 µM [falling, single point]"
CC1Nc2ncnc(N3CCc4ccccc4C3)c2N(Cc2ccc(Br)cc2)C1=O (stereo unspecified),AC50,[1],"23.1 µM [falling, single point]"
CCO[C@H]1OC(C(=O)Nc2ccccc2)=C[C@@H](c2ccc(Br)cc2)[C@@H]1CCCO,AC50,[1],"6.31 µM [falling, full curve]"
O=C(O)c1ccc(-n2ncc3c2/C(=C/c2cccc([N+](=O)[O-])c2)CC3)cc1,AC50,[1],"0.891 µM [falling, full curve]"
O=C(Cc1ccccc1)NNC(=O)c1ccccc1C(=O)O,AC50,[1],"4.47 µM [falling, partial curve, poor fit]"
O=C(O)CCNc1ccc2c(c1)OCCO2,AC50,[1],"7.31 µM [rising, partial curve]"
CC(C)c1ccc(Nc2nnc(SCC(=O)c3nnc(-c4ccccc4)o3)s2)cc1,AC50,[1],"23.1 µM [rising, single point]"
NC(=NCCCCCCN=C(N)/N=C(\N)Nc1ccc(Cl)cc1)/N=C(\N)Nc1ccc(Cl)cc1,AC50,[1],"7.31 µM [rising, partial curve]"
O=C(/C=C/c1cccc(Cl)c1)NCc1cccs1,AC50,[1],"4.47 µM [falling, full curve, poor fit]"
Cc1ccc(N(CC(=O)NCc2ccco2)C(=O)CCC(=O)Nc2nccs2)cc1,AC50,[1],"12.6 µM [falling, partial curve]"
Cc1ccc(C)c(N2CCN(C(=O)c3cc4c(C)nc5ccccc5c4o3)CC2)c1,AC50,[1],"22.4 µM [falling, single point]"
N#C/C(=C\c1ccncc1)c1nc2c(s1)CCCC2,AC50,[1],"2.51 µM [rising, full curve, poor fit]"
Cc1cccc(N(O)C(=O)Nc2cccc(Cl)c2)c1,AC50,[1],"17.8 µM [rising, single point]"
CCOC(=O)Cn1nnc(-c2cccc(OC)c2)n1,AC50,[1],"0.631 µM [rising, full curve, poor fit]"
O=c1cc(-c2ccncc2)oc2c1ccc1ccccc12,AC50,[1],"15.8 µM [rising, single point]"
CCc1sc(C(=O)Nc2nc(C)cs2)cc1C,AC50,[1],"10 µM [falling, partial curve, poor fit]"
Cc1cccc(/C=N/NC(=O)c2ccc(NC(=O)c3ccccc3C)cc2)n1,AC50,[1],"6.31 µM [falling, partial curve]"
CC1CCN(c2c(NCC3CCC(C(=O)NC4CCCCCC4)CC3)c(=O)c2=O)CC1 (stereo unspecified),AC50,[1],"11.2 µM [rising, single point]"
COc1ccccc1N(CCC#N)C(=O)CSc1nnc2ccccn12,AC50,[1],"29.1 µM [rising, single point]"
Cc1cc(C)n2nc(N)c(N=Nc3ccc(Cl)cc3)c2n1,AC50,[1],"1.46 µM [rising, full curve]"

# Part of the list above in a different format:
structure (smiles)	measurement	setting	value
COc1ccc(N(CC(=O)NCCC2=CCCCC2)S(=O)(=O)c2ccccc2F)cc1	AC50	[1]	0.112 µM [rising, full curve, poor fit]
O=C(CCn1c(=O)oc2ccccc21)NCCCN1CCN(c2ccc(F)cc2)CC1	AC50	[1]	17.8 µM [falling, partial curve, poor fit]
